This note sets out measurements from the supplement of paper PMC12819154, “High-throughput peptide-centric local stability assay extends protein–ligand identification to membrane proteins, tissues and bacteria” (Nature Structural & Molecular Biology, 2025).

Protein sequences, listed by entry. Tags and fused reporters are not part of them. Lines headed by an entry give the natural chain unless they say otherwise; changes in a name come on top.
UniProt Q99LS3: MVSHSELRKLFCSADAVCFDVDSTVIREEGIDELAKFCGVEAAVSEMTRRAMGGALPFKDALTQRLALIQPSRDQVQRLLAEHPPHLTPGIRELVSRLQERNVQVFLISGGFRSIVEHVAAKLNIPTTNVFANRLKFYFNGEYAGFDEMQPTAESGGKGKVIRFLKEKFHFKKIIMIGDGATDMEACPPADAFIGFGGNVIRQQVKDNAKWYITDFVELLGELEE
UniProt Q9CPX6, whole entry: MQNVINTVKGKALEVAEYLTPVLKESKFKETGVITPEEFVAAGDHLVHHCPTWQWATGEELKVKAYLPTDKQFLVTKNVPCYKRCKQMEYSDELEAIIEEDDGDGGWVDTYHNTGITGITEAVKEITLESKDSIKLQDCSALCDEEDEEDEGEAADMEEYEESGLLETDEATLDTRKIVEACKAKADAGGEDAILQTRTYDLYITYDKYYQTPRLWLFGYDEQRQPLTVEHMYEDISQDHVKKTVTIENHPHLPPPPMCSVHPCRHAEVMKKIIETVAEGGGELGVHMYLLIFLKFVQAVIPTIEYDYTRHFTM
UniProt Q99PG0: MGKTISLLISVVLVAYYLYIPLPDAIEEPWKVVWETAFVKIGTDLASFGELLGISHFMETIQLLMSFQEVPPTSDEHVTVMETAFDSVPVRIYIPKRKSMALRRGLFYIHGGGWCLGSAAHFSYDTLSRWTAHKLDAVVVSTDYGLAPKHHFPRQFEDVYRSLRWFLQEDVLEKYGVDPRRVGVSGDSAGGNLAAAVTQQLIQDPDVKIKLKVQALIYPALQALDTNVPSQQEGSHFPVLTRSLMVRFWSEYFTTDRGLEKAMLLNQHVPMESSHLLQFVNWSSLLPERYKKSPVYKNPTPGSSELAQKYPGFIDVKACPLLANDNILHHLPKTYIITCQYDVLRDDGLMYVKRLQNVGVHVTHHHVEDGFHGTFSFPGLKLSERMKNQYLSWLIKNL
UniProt Q99MR8: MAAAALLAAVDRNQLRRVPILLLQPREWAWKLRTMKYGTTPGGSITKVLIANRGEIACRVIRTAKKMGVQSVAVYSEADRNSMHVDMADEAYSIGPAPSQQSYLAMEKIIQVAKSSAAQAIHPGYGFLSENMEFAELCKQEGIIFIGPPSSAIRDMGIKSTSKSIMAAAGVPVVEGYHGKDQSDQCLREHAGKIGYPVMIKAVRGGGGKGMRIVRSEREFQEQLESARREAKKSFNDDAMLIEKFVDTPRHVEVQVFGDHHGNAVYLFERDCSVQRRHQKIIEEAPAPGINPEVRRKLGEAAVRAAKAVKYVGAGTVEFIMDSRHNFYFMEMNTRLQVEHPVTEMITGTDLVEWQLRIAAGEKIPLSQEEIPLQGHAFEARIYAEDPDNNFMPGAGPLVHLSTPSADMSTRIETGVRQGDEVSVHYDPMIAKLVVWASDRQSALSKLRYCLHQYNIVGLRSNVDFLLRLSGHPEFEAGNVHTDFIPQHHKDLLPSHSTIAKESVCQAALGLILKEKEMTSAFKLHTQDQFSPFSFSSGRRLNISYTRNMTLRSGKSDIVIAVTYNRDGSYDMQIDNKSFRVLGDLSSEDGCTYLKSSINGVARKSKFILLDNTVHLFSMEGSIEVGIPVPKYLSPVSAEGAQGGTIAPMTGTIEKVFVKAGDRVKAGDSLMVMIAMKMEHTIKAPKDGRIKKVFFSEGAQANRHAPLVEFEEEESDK

This is one part of the list. Small differences around the control level are noise.

Compound in the experiment: CN[C@@H]1C[C@H]2O[C@@](C)([C@@H]1OC)n1c3ccccc3c3c4c(c5c6ccccc6n2c5c31)C(=O)NC4 [staurosporine]
Briefly: log2 fold change of tryptic peptide abundance, ligand vs vehicle (limited proteolysis) (log2 ratio); higher = more trypsin-susceptible (destabilized). The conditions noted are these: ligand concentration: 20 uM; sample: mouse liver crude lysate; replicate design: treated separately.
In the case of “UniProt Q99LS3 (peptide sequence: LALIQPSRDQVQR, peptide start residue: 66)”, the log2 fold change is -0.557. For the target “UniProt Q9CPX6 (peptide sequence: AYLPTDKQFLVTK, peptide start residue: 65)”, the log2 fold change was -0.441. In the case of “UniProt Q99PG0 (peptide sequence: ACPLLANDNILHHLPK, peptide start residue: 318)”, the log2 fold change is -0.494.

With “UniProt Q99MR8 (peptide sequence: RLNISYTR, peptide start residue: 540)”, the log2 fold change amounted to 0.44.
